Assay results: the supplement of paper PMC10849652
Some of the results follow.

Protein sequences, listed by entry. Tags and fused reporters are not part of them. Lines headed by an entry give the natural chain unless they say otherwise; changes in a name come on top.
UniProt Q9UBW8: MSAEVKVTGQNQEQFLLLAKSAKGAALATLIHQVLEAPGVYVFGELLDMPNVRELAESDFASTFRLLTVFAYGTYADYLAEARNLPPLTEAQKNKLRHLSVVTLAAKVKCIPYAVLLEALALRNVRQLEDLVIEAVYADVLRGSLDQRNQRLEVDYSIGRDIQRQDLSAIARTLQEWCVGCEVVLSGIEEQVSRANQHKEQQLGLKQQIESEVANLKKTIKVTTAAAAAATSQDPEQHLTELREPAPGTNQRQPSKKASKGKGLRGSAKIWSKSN
UniProt Q14746: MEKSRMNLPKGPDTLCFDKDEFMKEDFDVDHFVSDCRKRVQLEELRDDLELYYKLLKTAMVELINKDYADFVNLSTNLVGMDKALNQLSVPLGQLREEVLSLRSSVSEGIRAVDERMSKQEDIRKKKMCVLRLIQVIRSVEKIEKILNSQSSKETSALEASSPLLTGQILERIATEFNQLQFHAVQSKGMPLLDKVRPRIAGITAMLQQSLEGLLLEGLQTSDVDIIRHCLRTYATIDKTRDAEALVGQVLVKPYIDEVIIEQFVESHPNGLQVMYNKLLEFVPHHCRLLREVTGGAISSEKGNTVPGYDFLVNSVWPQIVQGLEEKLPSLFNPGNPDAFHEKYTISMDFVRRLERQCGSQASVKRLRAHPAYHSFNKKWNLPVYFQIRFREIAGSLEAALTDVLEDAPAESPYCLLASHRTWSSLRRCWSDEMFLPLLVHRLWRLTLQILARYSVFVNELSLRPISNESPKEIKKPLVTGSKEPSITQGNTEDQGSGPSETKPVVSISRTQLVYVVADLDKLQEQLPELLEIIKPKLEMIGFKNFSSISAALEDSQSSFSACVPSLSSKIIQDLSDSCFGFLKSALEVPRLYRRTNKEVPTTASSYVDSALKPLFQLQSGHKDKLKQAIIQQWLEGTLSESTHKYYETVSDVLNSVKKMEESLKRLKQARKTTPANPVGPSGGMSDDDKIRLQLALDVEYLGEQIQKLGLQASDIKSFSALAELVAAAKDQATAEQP
UniProt Q96MW5: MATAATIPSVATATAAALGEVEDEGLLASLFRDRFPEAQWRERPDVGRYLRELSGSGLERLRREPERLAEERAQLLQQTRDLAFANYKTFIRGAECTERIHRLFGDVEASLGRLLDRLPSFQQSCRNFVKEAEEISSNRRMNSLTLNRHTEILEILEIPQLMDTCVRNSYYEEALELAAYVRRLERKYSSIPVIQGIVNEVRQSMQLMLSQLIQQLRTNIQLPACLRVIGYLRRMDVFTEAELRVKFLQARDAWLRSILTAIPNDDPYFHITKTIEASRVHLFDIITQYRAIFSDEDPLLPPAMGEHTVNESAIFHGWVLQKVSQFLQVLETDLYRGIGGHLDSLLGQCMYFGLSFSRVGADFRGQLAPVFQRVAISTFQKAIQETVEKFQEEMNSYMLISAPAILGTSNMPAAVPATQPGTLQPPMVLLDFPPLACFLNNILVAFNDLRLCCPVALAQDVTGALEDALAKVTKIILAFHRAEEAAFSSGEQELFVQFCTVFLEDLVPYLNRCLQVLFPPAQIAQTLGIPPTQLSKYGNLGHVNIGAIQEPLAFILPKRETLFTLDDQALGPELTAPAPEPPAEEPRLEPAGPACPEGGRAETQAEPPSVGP
UniProt Q8N8Q8: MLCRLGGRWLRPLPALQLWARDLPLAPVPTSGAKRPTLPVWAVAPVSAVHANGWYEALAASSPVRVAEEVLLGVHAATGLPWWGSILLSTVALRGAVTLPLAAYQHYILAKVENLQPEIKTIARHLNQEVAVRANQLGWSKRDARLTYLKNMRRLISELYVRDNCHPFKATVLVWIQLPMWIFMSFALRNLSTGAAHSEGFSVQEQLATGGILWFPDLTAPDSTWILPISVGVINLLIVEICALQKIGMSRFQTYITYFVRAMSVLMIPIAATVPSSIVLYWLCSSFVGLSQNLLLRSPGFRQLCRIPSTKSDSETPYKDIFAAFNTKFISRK
UniProt Q9BWP8: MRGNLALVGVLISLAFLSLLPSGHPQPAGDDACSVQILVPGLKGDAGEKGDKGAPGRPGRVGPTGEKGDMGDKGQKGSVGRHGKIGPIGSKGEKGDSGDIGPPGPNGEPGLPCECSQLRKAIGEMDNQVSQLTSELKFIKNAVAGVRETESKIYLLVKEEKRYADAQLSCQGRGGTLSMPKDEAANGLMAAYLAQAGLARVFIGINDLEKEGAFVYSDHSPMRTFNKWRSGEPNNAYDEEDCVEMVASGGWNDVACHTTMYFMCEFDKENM
UniProt Q9P003: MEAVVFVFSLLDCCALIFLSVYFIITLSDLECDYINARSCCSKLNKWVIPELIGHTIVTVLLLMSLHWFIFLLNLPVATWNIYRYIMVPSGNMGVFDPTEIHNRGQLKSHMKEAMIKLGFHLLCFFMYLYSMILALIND
UniProt Q86VU5: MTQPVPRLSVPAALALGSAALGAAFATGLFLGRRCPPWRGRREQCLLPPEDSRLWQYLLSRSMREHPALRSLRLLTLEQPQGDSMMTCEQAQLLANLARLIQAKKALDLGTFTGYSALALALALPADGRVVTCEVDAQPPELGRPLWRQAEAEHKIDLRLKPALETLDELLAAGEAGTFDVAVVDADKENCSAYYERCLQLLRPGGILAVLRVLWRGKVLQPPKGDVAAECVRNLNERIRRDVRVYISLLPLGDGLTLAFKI
UniProt Q8N9A8: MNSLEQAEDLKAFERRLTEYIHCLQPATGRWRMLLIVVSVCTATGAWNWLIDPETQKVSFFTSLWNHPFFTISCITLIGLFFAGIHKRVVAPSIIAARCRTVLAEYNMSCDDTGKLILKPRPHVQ
UniProt Q8N684: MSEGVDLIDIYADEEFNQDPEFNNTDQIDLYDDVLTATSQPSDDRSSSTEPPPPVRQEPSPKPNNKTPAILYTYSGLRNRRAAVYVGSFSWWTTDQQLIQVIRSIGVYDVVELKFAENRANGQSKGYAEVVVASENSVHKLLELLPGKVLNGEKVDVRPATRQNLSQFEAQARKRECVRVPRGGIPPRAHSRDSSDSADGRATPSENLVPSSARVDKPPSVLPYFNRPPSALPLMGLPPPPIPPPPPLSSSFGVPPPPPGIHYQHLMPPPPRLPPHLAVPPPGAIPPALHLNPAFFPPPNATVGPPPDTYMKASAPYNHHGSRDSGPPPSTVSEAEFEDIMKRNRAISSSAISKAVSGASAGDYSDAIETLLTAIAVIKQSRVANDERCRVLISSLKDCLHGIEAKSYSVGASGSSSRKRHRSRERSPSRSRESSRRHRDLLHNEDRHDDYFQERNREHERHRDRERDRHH
UniProt Q99807: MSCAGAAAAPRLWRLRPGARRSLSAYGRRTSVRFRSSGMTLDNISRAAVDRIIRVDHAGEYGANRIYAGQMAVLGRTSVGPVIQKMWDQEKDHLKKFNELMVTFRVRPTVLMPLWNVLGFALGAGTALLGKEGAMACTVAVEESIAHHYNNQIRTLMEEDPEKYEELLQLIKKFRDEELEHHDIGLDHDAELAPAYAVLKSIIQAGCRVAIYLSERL
UniProt Q7KZN9: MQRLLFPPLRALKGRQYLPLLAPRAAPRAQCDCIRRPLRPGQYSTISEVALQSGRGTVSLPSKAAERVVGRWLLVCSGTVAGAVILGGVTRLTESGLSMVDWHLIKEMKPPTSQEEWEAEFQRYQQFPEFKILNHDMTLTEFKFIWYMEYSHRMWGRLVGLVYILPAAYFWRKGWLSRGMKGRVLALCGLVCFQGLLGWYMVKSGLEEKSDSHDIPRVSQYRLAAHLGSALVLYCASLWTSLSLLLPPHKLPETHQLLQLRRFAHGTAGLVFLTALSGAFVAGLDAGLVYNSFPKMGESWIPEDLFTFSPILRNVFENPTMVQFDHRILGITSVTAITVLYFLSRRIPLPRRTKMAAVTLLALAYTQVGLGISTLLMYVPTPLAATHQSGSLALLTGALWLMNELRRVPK
UniProt Q8IYK4: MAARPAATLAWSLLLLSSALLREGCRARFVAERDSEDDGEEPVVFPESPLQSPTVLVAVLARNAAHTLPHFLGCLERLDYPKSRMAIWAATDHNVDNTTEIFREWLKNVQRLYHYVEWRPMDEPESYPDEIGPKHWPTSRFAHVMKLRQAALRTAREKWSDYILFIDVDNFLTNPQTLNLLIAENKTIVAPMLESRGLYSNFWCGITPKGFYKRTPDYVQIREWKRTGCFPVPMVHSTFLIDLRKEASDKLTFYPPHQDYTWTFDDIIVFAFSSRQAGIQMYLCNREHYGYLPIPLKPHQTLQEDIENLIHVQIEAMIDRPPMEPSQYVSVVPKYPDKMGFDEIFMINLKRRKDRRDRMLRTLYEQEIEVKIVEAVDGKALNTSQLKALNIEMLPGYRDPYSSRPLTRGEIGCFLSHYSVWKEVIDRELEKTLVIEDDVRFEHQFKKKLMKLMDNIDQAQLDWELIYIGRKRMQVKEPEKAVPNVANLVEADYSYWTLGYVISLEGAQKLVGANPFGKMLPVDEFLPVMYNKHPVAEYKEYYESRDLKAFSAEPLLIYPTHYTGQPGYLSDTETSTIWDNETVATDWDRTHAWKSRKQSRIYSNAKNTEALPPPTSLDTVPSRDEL
UniProt P53618: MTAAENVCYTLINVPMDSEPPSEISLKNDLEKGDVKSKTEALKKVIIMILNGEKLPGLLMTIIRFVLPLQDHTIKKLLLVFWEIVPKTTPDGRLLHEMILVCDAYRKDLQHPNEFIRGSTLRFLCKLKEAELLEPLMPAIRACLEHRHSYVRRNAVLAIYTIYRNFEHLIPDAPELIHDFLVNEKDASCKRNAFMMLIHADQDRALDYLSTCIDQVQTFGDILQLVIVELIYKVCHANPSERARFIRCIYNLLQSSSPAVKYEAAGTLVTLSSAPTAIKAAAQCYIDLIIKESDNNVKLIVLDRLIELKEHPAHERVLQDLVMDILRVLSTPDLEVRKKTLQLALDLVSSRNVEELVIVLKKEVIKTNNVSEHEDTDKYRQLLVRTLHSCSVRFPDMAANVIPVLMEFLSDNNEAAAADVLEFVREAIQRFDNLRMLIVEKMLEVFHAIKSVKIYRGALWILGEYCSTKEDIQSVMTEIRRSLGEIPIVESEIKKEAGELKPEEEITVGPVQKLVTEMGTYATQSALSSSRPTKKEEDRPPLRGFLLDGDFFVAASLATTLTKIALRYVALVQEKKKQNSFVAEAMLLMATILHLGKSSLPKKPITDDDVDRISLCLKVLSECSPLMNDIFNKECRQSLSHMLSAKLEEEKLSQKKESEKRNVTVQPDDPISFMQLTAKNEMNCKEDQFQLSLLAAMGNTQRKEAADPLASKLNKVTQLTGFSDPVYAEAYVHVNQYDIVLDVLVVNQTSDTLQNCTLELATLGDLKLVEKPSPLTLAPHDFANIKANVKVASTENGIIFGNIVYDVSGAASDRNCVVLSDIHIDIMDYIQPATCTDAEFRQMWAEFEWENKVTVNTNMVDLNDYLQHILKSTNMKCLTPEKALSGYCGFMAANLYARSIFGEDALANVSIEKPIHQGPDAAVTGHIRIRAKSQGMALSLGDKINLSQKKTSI
UniProt Q9UFF9, whole entry, looked up: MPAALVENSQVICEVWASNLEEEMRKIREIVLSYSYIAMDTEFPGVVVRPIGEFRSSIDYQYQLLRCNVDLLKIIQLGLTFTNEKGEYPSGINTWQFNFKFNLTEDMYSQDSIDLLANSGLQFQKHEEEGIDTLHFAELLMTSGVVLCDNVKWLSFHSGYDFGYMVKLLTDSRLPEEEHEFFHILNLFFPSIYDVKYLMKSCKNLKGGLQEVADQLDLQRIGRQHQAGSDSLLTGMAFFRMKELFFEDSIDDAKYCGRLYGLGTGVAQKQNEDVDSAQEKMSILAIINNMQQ
UniProt Q96KP4: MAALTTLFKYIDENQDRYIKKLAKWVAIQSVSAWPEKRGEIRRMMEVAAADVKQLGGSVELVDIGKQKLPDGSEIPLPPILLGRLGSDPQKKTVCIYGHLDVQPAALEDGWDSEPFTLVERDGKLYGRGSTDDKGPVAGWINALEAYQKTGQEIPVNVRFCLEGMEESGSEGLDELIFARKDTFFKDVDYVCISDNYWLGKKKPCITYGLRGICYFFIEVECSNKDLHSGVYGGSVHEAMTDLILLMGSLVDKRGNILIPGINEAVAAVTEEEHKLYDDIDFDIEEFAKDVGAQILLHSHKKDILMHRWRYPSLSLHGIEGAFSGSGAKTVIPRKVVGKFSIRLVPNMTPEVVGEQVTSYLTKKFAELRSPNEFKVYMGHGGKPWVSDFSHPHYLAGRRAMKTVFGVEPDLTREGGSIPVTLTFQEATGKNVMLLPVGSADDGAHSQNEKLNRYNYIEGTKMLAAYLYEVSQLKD
UniProt P20674, whole entry, looked up: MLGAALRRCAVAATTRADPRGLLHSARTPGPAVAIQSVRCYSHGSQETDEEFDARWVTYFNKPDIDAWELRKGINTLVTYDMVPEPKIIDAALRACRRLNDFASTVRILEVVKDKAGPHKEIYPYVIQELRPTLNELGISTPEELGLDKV
UniProt Q8N129: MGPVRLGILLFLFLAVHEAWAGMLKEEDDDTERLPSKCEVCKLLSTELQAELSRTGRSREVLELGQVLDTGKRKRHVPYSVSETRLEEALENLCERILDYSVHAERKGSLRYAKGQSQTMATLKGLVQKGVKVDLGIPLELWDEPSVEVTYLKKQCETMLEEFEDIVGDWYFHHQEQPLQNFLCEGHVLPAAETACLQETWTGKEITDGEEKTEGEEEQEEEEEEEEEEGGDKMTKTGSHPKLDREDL

These targets were tested with C1=CC=C(C=C1)[C@H](COC2=CC3=C(C=C2)NC(=O)N3)NC(=O)C4=CC=CN(C4=O)CC5=CC(=C(C=C5)F)F (assay: log2 fold change, soluble protein after heating vs DMSO (PISA); higher = thermal stabilisation; K562 lysate, 10 uM; active = over 0.2 and 3.5 SD of the protein, either way, in both replicates (recomputed)).
Procedure, shortened: (§1)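 Log-two fold change in thermal stability relative to solvent controls is reported from duplicates. For each sample, crude K562 extract from dounce-homogenised pellets in PBS pH 7.4 with 1 mM MgCl2, at 1 mg/mL protein, was treated with 10 μM compound for 30 min. Aliquots heated for 3 min across 48°C-58°C were pooled, brought to 0.5% NP-40 at 4°C and cleared at 21,000xg for 90 min. The supernatant was quantified by TMTpro 16plex LC-MS/MS with channel sums equalised.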

Target	log2 fold change
COPS7A (UniProt Q9UBW8)	inactive: 0.005
COG2 (UniProt Q14746)	inactive: -0.038
CNOT10 (UniProt Q9H9A5)	inactive: -0.013
COG8 (UniProt Q96MW5)	inactive: -0.08
CORO1C isoform 3 (UniProt Q9ULV4)	inactive: 0.025
COX18 (UniProt Q8N8Q8)	inactive: -0.029
COX20 isoform 2 (UniProt Q5RI15)	inactive: 0.01
COIL (UniProt P38432)	inactive: 0.103
COX6A1 (UniProt P12074)	inactive: 0.097
COLEC11 isoform 10 (UniProt Q9BWP8)	inactive: 0.023
CNIH4 (UniProt Q9P003)	inactive: -0.355
COA1 (UniProt Q9GZY4)	inactive: 0.001
COMTD1 (UniProt Q86VU5)	inactive: -0.1
COPS2 isoform 2 (UniProt P61201)	inactive: -0.023
CNEP1R1 isoform 2 (UniProt Q8N9A8)	inactive: 0.038
CPSF7 isoform 3 (UniProt Q8N684)	inactive: -0.063
COQ7 (UniProt Q99807)	inactive: 0.024
CNST (UniProt Q6PJW8)	inactive: 0.041
COX15 (UniProt Q7KZN9)	inactive: -0.001

Target	log2 fold change
COTL1 (UniProt Q14019)	inactive: -0.018
CNOT6 (UniProt Q9ULM6)	inactive: 0.013
CNRIP1 (UniProt Q96F85)	inactive: 0.187
CPSF3 (UniProt Q9UKF6)	inactive: -0.026
COLGALT2 (UniProt Q8IYK4)	inactive: 0.017
COL25A1 (UniProt Q9BXS0)	inactive: -0.344
COPB1 (UniProt P53618)	inactive: -0.014
COASY isoform 2 (UniProt Q13057)	inactive: -0.049
CPNE3 (UniProt O75131)	inactive: 0.072
CNBP (UniProt P62633)	inactive: 0.095
COMMD9 (UniProt Q9P000)	inactive: 0.114
COPG2 (UniProt Q9UBF2)	inactive: -0.025
CNOT8 (UniProt Q9UFF9)	inactive: 0.007
COG3 (UniProt Q96JB2)	inactive: -0.03
CNDP2 (UniProt Q96KP4)	inactive: 0.017
CNOT2 (UniProt Q9NZN8)	inactive: 0.019
COX5A (UniProt P20674)	inactive: 0.065
COL6A5 (UniProt A8TX70)	inactive: 0.025
CNPY4 (UniProt Q8N129)	inactive: -0.019

These targets were tested with CC1=C(SC2=C1C(=N[C@H](C3=NN=C(N32)C)CC(=O)N)C4=CC=C(C=C4)Cl)C in the same assay as above.
Procedure, shortened: as §1

Target	log2 fold change
COPS7A (UniProt Q9UBW8)	inactive: -0.014
COG2 (UniProt Q14746)	inactive: -0.034
CNOT10 (UniProt Q9H9A5)	inactive: 0.023
COG8 (UniProt Q96MW5)	inactive: 0.004
CORO1C isoform 3 (UniProt Q9ULV4)	inactive: -0.016
COX18 (UniProt Q8N8Q8)	inactive: 0.024
COX20 isoform 2 (UniProt Q5RI15)	inactive: -0.047
COIL (UniProt P38432)	inactive: 0.05
COX6A1 (UniProt P12074)	inactive: -0.002
COLEC11 isoform 10 (UniProt Q9BWP8)	inactive: 0.125
CNIH4 (UniProt Q9P003)	inactive: -0.301
COA1 (UniProt Q9GZY4)	inactive: 0.026
COMTD1 (UniProt Q86VU5)	inactive: 0.123
COPS2 isoform 2 (UniProt P61201)	inactive: 0.005
CNEP1R1 isoform 2 (UniProt Q8N9A8)	inactive: 0.103
CPSF7 isoform 3 (UniProt Q8N684)	inactive: 0.045
COQ7 (UniProt Q99807)	inactive: -0.014
CNST (UniProt Q6PJW8)	inactive: 0.019
COX15 (UniProt Q7KZN9)	inactive: 0.005

Target	log2 fold change
COTL1 (UniProt Q14019)	inactive: -0.019
CNOT6 (UniProt Q9ULM6)	inactive: -0.004
CNRIP1 (UniProt Q96F85)	inactive: -0.118
CPSF3 (UniProt Q9UKF6)	inactive: -0.036
COLGALT2 (UniProt Q8IYK4)	inactive: 0.019
COL25A1 (UniProt Q9BXS0)	inactive: 0.278
COPB1 (UniProt P53618)	inactive: 0.01
COASY isoform 2 (UniProt Q13057)	inactive: -0.002
CPNE3 (UniProt O75131)	inactive: -0.047
CNBP (UniProt P62633)	inactive: -0.008
COMMD9 (UniProt Q9P000)	inactive: -0.1
COPG2 (UniProt Q9UBF2)	inactive: 0.014
CNOT8 (UniProt Q9UFF9)	inactive: -0.02
COG3 (UniProt Q96JB2)	inactive: -0.015
CNDP2 (UniProt Q96KP4)	inactive: 0.017
CNOT2 (UniProt Q9NZN8)	inactive: -0.016
COX5A (UniProt P20674)	inactive: -0.03
COL6A5 (UniProt A8TX70)	inactive: 0.052
CNPY4 (UniProt Q8N129)	inactive: 0.071
